PubChem BioAssay AID2685 (National Center for Advancing Translational Sciences (NCATS), 2010)
Out of some 320,000 compounds screened, about 2,100 (0.66%) were called active. This list was built around the results that the source calls inconclusive (neither active nor inactive); the mix of calls is not that of the screen. Calls come from the whole dose curve; as a rule, active = well fitted inhibition curve with a large enough effect in the signal ratio, with a control signal flat (not every such curve was filed as active); inconclusive = small, poorly fitted or top-dose-only effect, or effect the other way, or a change in a side signal; inactive = flat fitted curve, though single readings scatter; the % refers to the signal ratio. A potency beside an inconclusive call is a rough fit, not a confirmed value.

test: qHTS Assay for Lipid Storage Modulators in Drosophila S3 Cells; settings: BODIPY lipid droplet fluorescence, 18-24 h, cells fed with added oleic acid; lipid storage change, negative = inhibition: at 46.1 µM (top of the series) unless noted
Summary of the method: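 Laser-scanning cytometry quantifies lipid droplet accumulation (500–530 nm total intensity; droplet/cell object ratio) in oleic acid-fed (400 uM added) Drosophila S3 cells treated with a concentration series. 20 uM Triacsin C defined 100% inhibition.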
% is set by controls: 0 for no effect and ±100 for the full control effect; potency is the fitted concentration of half-maximal effect.

SMILES	Potency	lipid storage change, negative = inhibition
CCc1nc(SCC(=O)Nc2ccc(F)cc2F)c2c(=O)n(C)c(=O)n(C)c2n1	inconclusive: 1.46 µM [falling, full curve]	–
C/C(=N\NC(=O)c1ccc(N/N=C(\C)c2ccncc2)cc1)c1ccncc1	–	inconclusive: 38.3%
CN(Cc1ccccc1)S(=O)(=O)c1ccc(N2CCOCC2)nc1	–	inconclusive: -13.8%
CCN(CC)CCn1c2ccccc2c2nc3ccccc3nc21	inconclusive: 6.51 µM [falling, single point]	–
Cc1cc(-c2nn(-c3ccccc3F)cc2CN2CCN(c3ccccn3)CC2)c(C)s1	–	inconclusive: 15.9%
COC(=O)c1cccc(NC(=O)CCc2c(C)noc2C)c1	inconclusive: 4.61 µM [falling, full curve, poor fit]	–
CCc1cccc(CC)c1-n1c(SCc2cc(=O)n3ccsc3n2)nnc1-c1cccnc1	inconclusive: 18.4 µM [activator, partial curve, poor fit]	–
c1ccc(CCN2CN(CCCN3CCOCC3)c3nc4ccccc4n3C2)cc1	–	inconclusive: 7.35%
COc1ccc(-c2noc(CN3C(=O)c4ccccc4C3=O)n2)cc1	–	inconclusive: 64.2%
COc1ccc(S(=O)(=O)NCc2ccc(C(=O)NCCCN3CCCC(C)C3)cc2)cc1 (stereo not given)	inconclusive: 29.1 µM [activator, single point]	–
O=C(O)CCNS(=O)(=O)c1ccc2c(c1)CCCC2	–	inconclusive: 29.1%
O=C(O)CCn1cc(-c2ccc(F)cc2)nc1-c1ccncc1	inconclusive: 1.46 µM [activator, full curve]	–
Cc1cc(C)cc(NC(=O)CSc2ccc(-c3ccccn3)nn2)c1	–	inactive
O=C(CN1CCN(c2ccc(F)cc2)CC1)N1CCOCC1	inconclusive: 1.3 µM [falling, full curve, poor fit]	–
Cc1cccc(NC(=O)c2cc([N+](=O)[O-])ccc2NC2CCCCC2)c1	inconclusive: 32.6 µM [falling, single point]	–
COc1cc(OC)c2cc(C(=O)N[C@H](C(=O)N3CCC[C@H]3C(=O)O)C(C)C)n(C)c2c1	inconclusive: 1.46 µM [activator, partial curve]	–
COc1ccc([C@H]2C=C(C(=O)O)O[C@@H](OCc3ccc(CO)cc3)C2)cc1	inconclusive: 20.6 µM [activator, single point]	–
COc1ccc(C)cc1NCc1cc(=O)oc2cc(-c3ccccc3)c(O)cc12	inconclusive: 29.1 µM [falling, single point]	–
O=C(O)CSc1nnc(Nc2ccccc2)n1-c1ccccc1	inconclusive: 29.1 µM [rising, single point]	–
O=C(C1CCN(CC2CC=CCC2)CC1)N(CCc1ccccc1)Cc1ccccc1 (stereo not given)	–	inconclusive: 21.6%
CC(C)CC(CCc1ccccc1)OS(N)(=O)=O (stereo not given)	inconclusive: 16.4 µM [activator, single point]	–
O=C(NCc1ccncc1)c1cncc(Br)c1	–	inconclusive: 77.9%
CCOC(=O)c1c(CSC(=N)N)n(-c2ccc(C)cc2)c2cc(Br)c(OC(C)=O)cc12	–	inconclusive: -15.2%
O=C(/C=C/c1ccc(Cl)cc1)NC(=S)Nc1ccccc1C(=O)O	–	inconclusive: 18.4%
CN1CCc2nc(SCC(=O)Nc3ccc(OC(F)(F)F)cc3)c(C#N)c(-c3cccs3)c2C1	–	inconclusive: 4.41%

SMILES	Potency	lipid storage change, negative = inhibition
Nc1ccc(Nc2ccccc2)c(S(=O)(=O)O)c1	–	inconclusive: -1.18%
CCCSC1C(C)=C(C)C(=O)N1Cc1ccccc1 (stereo not given)	–	inconclusive: 35.2%
O=C(Nc1ccc2ccccc2c1)/C(=C\c1ccc2c(c1)OCO2)NC(=O)c1ccco1	inconclusive: 0.082 µM [rising, full curve, poor fit]	–
CC(C)CC(OC(=O)c1nsc(Cl)c1Cl)C(=O)NCC1CCCO1 (stereo not given)	–	inconclusive: 8.31%
CCc1c(C#N)c(N)nc(SCC(=O)OCc2ccccc2)c1C#N	inconclusive: 1.46 µM [activator, full curve]	–
CCC(=O)N1CCN(c2ccccc2NC(=O)Cc2ccc(Cl)cc2)CC1	–	inconclusive: 44.3%
Cc1cc(C)nc(SCc2nc(N)nc(-c3ccccc3O)n2)n1	inconclusive: 0.82 µM [activator, single point]	–
CCOC(=O)N1CCN(S(=O)(=O)c2ccc(OC)cc2)CC1	inconclusive: 6.51 µM [falling, single point]	–
Cc1cccn2c(=O)c(/C=C3\SC(=S)NC3=O)c(NCCCN3CCOCC3)nc12	inconclusive: 29.1 µM [falling, single point]	–
Cc1oc(-c2ccc(Cl)cc2)nc1CN1CCCC(C(=O)NCCCN2CCCC2=O)C1 (stereo not given)	inconclusive: 0.116 µM [falling, full curve, poor fit]	–
COc1cccc(/C=C/C(=O)OCC(=O)c2c[nH]c3ccccc23)c1	active: 9.2 µM	–
COc1ccc(OC)c(NC(=O)C2CCCN(S(=O)(=O)c3c(C)noc3C)C2)c1 (stereo not given)	–	inconclusive: 5.46%
Cc1ccsc1C(=O)Nc1ccc(C(=O)O)cc1	–	inactive
O=C(NN=C1CCCCCC1)c1ccc(Cl)s1	inconclusive: 0.651 µM [activator, partial curve, poor fit]	–
O=C(NCCN1C(=O)C2C3C=CC(C3)C2C1=O)NCc1ccccc1 (stereo not given)	–	inconclusive: 2.19%
Cc1ccsc1C(C(=O)NC(C)(C)C)N(C(=O)c1csnn1)c1ccccc1 (stereo not given)	inconclusive: 6.51 µM [falling, single point]	–
N/C(Cc1cccc2ccccc12)=N\OC(=O)COc1ccccc1	–	inconclusive: 4.54%
Cc1cc(=O)n2nc(N3CCCC(C(=O)NCc4ccco4)C3)sc2n1 (stereo not given)	–	inconclusive: 53.7%
CC(=O)c1cccc(Nc2cc(C)nc3c(C)cc(C)cc23)c1	–	inconclusive: 198%
CC(C)c1cccc(C(C)C)c1NC(=O)CN1C(=O)NC2(CCCCCCC2)C1=O	–	inconclusive: 8.21%
COc1ccc(N(CC(=O)NCCSc2ccccc2)S(=O)(=O)c2ccccc2)cc1OC	–	inconclusive: -5.98%
Cc1cc(/C=C(\C#N)C(=O)N2CCCCC2)cc(C)c1O	–	inconclusive: -57.4%
O=C(NCc1cccs1)c1ccncc1	–	inconclusive: 18%
COC(=O)c1ccc(-n2nnnc2SCC(=O)Nc2ccccc2F)cc1	inconclusive: 23.1 µM [falling, single point]	–
O=C(CSc1ccc(-c2nc3ccccc3[nH]2)cn1)N1CCN(C(=O)c2ccco2)CC1	–	inconclusive: 16.5%

4 structures from above, arranged by molar mass, descending:
SMILES	Potency	lipid storage change, negative = inhibition
O=C(Nc1ccc2ccccc2c1)/C(=C\c1ccc2c(c1)OCO2)NC(=O)c1ccco1	inconclusive: 0.082 µM [rising, full curve, poor fit]	–
Cc1ccsc1C(C(=O)NC(C)(C)C)N(C(=O)c1csnn1)c1ccccc1 (stereo not given)	inconclusive: 6.51 µM [falling, single point]	–
O=C(NCCN1C(=O)C2C3C=CC(C3)C2C1=O)NCc1ccccc1 (stereo not given)	–	inconclusive: 2.19%
N/C(Cc1cccc2ccccc12)=N\OC(=O)COc1ccccc1	–	inconclusive: 4.54%

The results go on:

SMILES	Potency	lipid storage change, negative = inhibition
CC1=C(C(=O)Nc2ccccc2)C(c2cccs2)NC(=O)N1 (stereo not given)	–	inactive
COC(=O)C1NN=C(C(=O)c2ccc(Br)cc2)C1c1cccc(Br)c1 (stereo not given)	inconclusive: 13 µM [activator, partial curve]	–
O=C(NCc1ccccc1)C1=C[C@H](c2csc3ccccc23)C[C@H](OCCCCO)O1	–	inconclusive: -5.25%
COc1ccc(OC)c(NC(=O)Nc2ccc3c(c2)OCO3)c1	inconclusive: 0.891 µM [activator, full curve, poor fit]	–
CC(C)NC(=O)NC1C2CC3CC(C2)CC1C3 (stereo not given)	–	inconclusive: -14.1%
CCCC(=O)N1CCC(Cc2ccccc2)CC1	–	inconclusive: -100%
CCCCn1c(N)c(N(CC)C(=O)Cc2ccc(S(=O)(=O)N3CCOCC3)s2)c(=O)[nH]c1=O	–	inconclusive: -6.64%
COc1ccc(CCNc2nc(-c3ccc(O)cc3)cs2)cc1OC	inconclusive: 29.1 µM [rising, single point]	–
CCCCN(C(=O)CSc1ncn[nH]1)c1c(N)n(Cc2ccccc2)c(=O)[nH]c1=O	–	inconclusive: 11.3%
Cn1c(-c2ccc3c(c2)OCO3)cnc1NC(=O)CCC(=O)NCCc1ccccc1	–	inconclusive: 5.8%
COCCC1CCCCN1C(=O)c1cccc(OC2CCN(S(C)(=O)=O)CC2)c1 (stereo not given)	–	inconclusive: 77.9%
O=C(COC(=O)c1ccco1)NCC1CCCCC1	inconclusive: 6.51 µM [activator, single point]	–
CCCCCC(C)NC(=O)c1cc(S(=O)(=O)N2CCCCC2)ccc1N1CCOCC1 (stereo not given)	–	inconclusive: -14.5%
C=CCNc1nc(-c2sc(NC(=O)CC)nc2C)cs1	–	inconclusive: -50.1%
Cc1ccc(S(=O)(=O)N2CCOCC2)cc1C(=O)N1CCN(c2ncccn2)CC1	–	inconclusive
CC(C)(C)NC(=O)C(OC(=O)c1ccco1)c1ccc(Cl)cc1 (stereo not given)	inconclusive: 5.8 µM [activator, single point]	–
O=C(CN1C(=O)C2CCCCC2C1=O)OCc1nnc(-c2ccccc2)o1 (stereo not given)	–	inconclusive: 20.7%
CCn1cc(Cl)c(C(=O)Nc2c(C)nn(Cc3c(F)c(F)c(F)c(F)c3F)c2C)n1	inconclusive: 0.164 µM [activator, full curve, poor fit]	–
CCOc1ccc(/C=C/c2nc(C#N)c(NCCCN(C)C)o2)cc1	–	inactive
CC/C(=N/Nc1ccc(Cl)cc1)c1cnnc(SC)n1	inconclusive: 29.1 µM [activator, single point]	–
O=C1c2ccccc2CCCC12N=NCC2c1cccc2ccccc12 (stereo not given)	–	inconclusive: 108%
CCN(Cc1nc(-c2ccccc2)no1)C(=O)c1ccc2c(c1)OCO2	–	inconclusive: 60.8%
O=C(NCC1CCCO1)c1cn(Cc2ccccc2Cl)nc1-c1ccccc1 (stereo not given)	–	inconclusive
CCOc1ccc(C(C)=O)cc1Cc1c(O)nc(N)[nH]c1=O	inconclusive: 0.0046 µM [falling, full curve, poor fit]	–
CN(C(=O)C12CC3CC(CC(C3)C1)C2)C1(C)CCS(=O)(=O)C1 (stereo not given)	–	inconclusive: -2.58%
